No constants are given. Whether binding was seen depends on the method and setting. In cells and extracts the contact can be indirect. A yes stands for co-enrichment or nearness to the bait. Other partners may have been found. For some assays here: No binding means not detected with the bait. Sequences can lack the tags named with a protein.
T1: GSRhino-TAP-tagged COP1 (Arabidopsis) (UniProt P43254)
T1 sequence: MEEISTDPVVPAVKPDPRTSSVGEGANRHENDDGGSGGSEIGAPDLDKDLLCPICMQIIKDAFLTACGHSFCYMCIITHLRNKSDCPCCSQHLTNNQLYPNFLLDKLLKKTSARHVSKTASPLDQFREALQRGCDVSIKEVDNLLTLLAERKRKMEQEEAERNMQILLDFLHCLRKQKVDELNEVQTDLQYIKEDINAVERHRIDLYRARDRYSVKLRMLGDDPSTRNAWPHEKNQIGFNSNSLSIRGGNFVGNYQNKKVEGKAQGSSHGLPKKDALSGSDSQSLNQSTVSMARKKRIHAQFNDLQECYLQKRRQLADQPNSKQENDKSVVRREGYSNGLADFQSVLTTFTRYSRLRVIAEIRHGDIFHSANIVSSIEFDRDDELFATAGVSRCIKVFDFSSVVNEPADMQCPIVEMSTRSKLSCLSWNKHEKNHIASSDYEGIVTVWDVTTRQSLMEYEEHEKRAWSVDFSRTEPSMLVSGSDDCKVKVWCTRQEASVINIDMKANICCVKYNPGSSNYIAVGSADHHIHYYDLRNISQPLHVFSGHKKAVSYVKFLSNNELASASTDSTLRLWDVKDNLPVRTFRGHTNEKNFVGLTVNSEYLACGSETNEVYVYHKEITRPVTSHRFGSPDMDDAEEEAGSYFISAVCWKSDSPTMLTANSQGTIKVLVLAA

T2: GSRhino-TAP-tagged DET1 (DE-ETIOLATED1) (Arabidopsis) (UniProt P48732)
T2 sequence: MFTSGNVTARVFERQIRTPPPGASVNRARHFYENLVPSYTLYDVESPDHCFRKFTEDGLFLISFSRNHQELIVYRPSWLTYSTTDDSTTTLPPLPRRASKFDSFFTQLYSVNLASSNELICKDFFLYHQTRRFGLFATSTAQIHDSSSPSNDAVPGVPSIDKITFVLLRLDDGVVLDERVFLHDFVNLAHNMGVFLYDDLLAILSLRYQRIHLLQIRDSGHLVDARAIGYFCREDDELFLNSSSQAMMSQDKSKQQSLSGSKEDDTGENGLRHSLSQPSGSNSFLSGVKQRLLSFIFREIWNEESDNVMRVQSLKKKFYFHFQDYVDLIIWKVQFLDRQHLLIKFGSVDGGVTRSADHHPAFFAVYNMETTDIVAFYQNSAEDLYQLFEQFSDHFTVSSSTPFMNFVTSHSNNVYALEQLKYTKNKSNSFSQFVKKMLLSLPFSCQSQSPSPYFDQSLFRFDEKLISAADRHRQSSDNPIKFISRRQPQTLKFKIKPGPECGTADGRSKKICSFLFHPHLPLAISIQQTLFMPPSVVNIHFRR


Experiments:
[1] = target: T1, GSRhino-TAP-tagged COP1 (Arabidopsis); experiment: affinity purification with mass spectrometry
[2] = target: T2, GSRhino-TAP-tagged DET1 (DE-ETIOLATED1) (Arabidopsis); experiment: affinity purification with mass spectrometry

Binder | binding [1] | binding [2]
CSN1 (signalosome subunit 1) (protein, UniProt P45432 1-441) MERDEEASGPMMEMCTNGGEETSNRRPIISGEPLDIEAYAALYKGRTKIMRLLFIANHCGGNHALQFDALRMAYDEIKKGENTQLFREVVNKIGNRLGEKYGMDLAWCEAVDRRAEQKKVKLENELSSYRTNLIKESIRMGYNDFGDFYYACGMLGDAFKNYIRTRDYCTTTKHIIHMCMNAILVSIEMGQFTHVTSYVNKAEQNPETLEPMVNAKLRCASGLAHLELKKYKLAARKFLDVNPELGNSYNEVIAPQDIATYGGLCALASFDRSELKQKVIDNINFRNFLELVPDVRELINDFYSSRYASCLEYLASLKSNLLLDIHLHDHVDTLYDQIRKKALIQYTLPFVSVDLSRMADAFKTSVSGLEKELEALITDNQIQARIDSHNKILYARHADQRNATFQKVLQMGNEFDRDVRAMLLRANLLKHEYHARSARKL | no binding | binds
CSN2 (signalosome subunit 2) (protein, UniProt Q8W207 1-439) MASDADMEDYGFEYSDEEQEEQDVDIENQYYNSKGMVETEPEEALSGFAEVVQMEPEKADWGFKALKQTVKIYYRLGKYKEMMEAYTEMLTYIKSAVTRNYSEKCINNIMDFVSGSASQNTGLLQEFYQTTLKALEEAKNERLWFKTNLKLCNIWFDIGEYRRMTKILKELHKSCQKEDGTDDQKKGSQLLEVYAIEIQIYTETKDNKKLKQLYHKALAIKSAIPHPRIMGIIRECGGKMHMAERQWEEAATDFFEAFKNYDEAGNQRRIQCLKYLVLANMLMESEVNPFDGQEAKPYKNDPEILAMTNLIAAYQRNEIIEFERILKSNRRTIMDDPFIRNYMEDLLKKVRTQVLLKLIKPYTKIGIPFISKELNVPETDVTELLVSLILDSRIDGHIDEMNRYLLRGDSGNGRKLHKAVDKWNSQLKSLSSNITSRVC | no binding | binds

Now from value to binder:

binding [1] | binding [2] | Binder
no binding | binds | CULLIN4 (CUL4) (protein, UniProt Q8LGH4 1-792) MSLPTKRSTFSAASASDDSSYSSPPMKKAKNDLHHSPQHPNTADKVVGFHMEEDPTPAAANLSRKKATLPQPTKKFVIKLNKAKPTLPTNFEENTWEKLQSAIRAIFLKKKISFDLESLYQAVDNLCLHKLDGKLYDQIEKECEEHISAALQSLVGQNTDLTVFLSRVEKCWQDFCDQMLMIRSIALTLDRKYVIQNPNVRSLWEMGLQLFRKHLSLAPEVEQRTVKGLLSMIEKERLAEAVNRTLLSHLLKMFTALGIYMESFEKPFLEGTSEFYAAEGMKYMQQSDVPEYLKHVEGRLHEENERCILYIDAVTRKPLITTVERQLLERHILVVLEKGFTTLMDGRRTEDLQRMQTLFSRVNALESLRQALSSYVRKTGQKIVMDEEKDKDMVQSLLDFKASLDIIWEESFYKNESFGNTIKDSFEHLINLRQNRPAELIAKFLDEKLRAGNKGTSEEELESVLEKVLVLFRFIQGKDVFEAFYKKDLAKRLLLGKSASIDAEKSMISKLKTECGSQFTNKLEGMFKDIELSKEINESFKQSSQARTKLPSGIEMSVHVLTTGYWPTYPPMDVKLPHELNVYQDIFKEFYLSKYSGRRLMWQNSLGHCVLKADFSKGKKELAVSLFQAVVLMLFNDAMKLSFEDIKDSTSIEDKELRRTLQSLACGKVRVLQKNPKGRDVEDGDEFEFNDEFAAPLYRIKVNAIQMKETVEENTSTTERVFQDRQYQIDAAIVRIMKTRKVLSHTLLITELFQQLKFPIKPADLKKRIESLIDREYLEREKSNPQIYNYLA
no binding | binds | CSN3 (signalosome subunit 3) (protein, UniProt Q8W575 1-429) MIGAVNSVEAVITSIQGLSGSPEDLSALHDLLRGAQDSLRAEPGVNFSTLDQLDASKHSLGYLYFLEVLTCGPVSKEKAAYEIPIIARFINSCDAGQIRLASYKFVSLCKILKDHVIALGDPLRGVGPLLNAVQKLQVSSKRLTALHPDVLQLCLQAKSYKSGFSILSDDIVEIDQPRDFFLYSYYGGMICIGLKRFQKALELLYNVVTAPMHQVNAIALEAYKKYILVSLIHNGQFTNTLPKCASTAAQRSFKNYTGPYIELGNCYNDGKIGELEALVVARNAEFEEDKNLGLVKQAVSSLYKRNILRLTQKYLTLSLQDIANMVQLGNAKEAEMHVLQMIQDGQIHALINQKDGMVRFLEDPEQYKSSEMIEIMDSVIQRTIGLSKNLLAMDESLSCDPLYLGKVGRERQRYDFGDDFDTVPQKFSM
